# Data from US20250122189A1, “FGFR4 INHIBITOR ACID SALT, PREPARATION METHOD THEREFOR AND USE THEREOF” (Abbisko Therapeutics Co., Ltd., priority 2021, published 2025).
# Structures can show the parent of a compound that is named as a salt. At least one read-out could not be matched to a standard name with certainty.
# Assay: In vivo pharmacokinetic experiment in monkeys
# Conditions: Monkey, 200 mpk
# From the text: The p-toluenesulfonate salt of the compound of formula (I) (Form A) and the compound of formula (I) in free form were each subjected to PK experiments in monkeys, and the administration dose was 200 mpk (based on the compound in free form).
structure (smiles),measurement,value
C=CC(=O)N[C@H]1CCOC[C@H]1Nc1ncc2cc(-c3c(F)c(OC)cc(OC)c3F)nc(N3CC(C)(OC)C3)c2n1 [p-toluenesulfonate salt of the compound of formula (I) (Form],bioavailability compared with the compound of formula (I) in free form,significantly higher
